According to patent publication US20250171560A1:

B1: scFv S9F5 (phage display clone) (scFv)
scFv: SYELTQPPSVSVAPGQTARITCGGDALPNNSVRWYQQKPGQAPVLVIYGNSERPSGIPERFSGSNSGNTATLTISGTQAEDEADYYCQVSDKSTKYSVFGGGTKLTVLGGGGSGGGGSGGGGSEVQLVESGGGLVQPGGSLRLSCAASGFTFSNYWMSWVRQAPGKGLEWVAGISASGGNKYYADSVKGRFTISRDNSKNTLYLQMNSLRAEDTAVYYCAKGPIQLKRHKYVLDYWGQGTLVTVSS
B2: scFv S10E12 (phage display clone) (scFv)
scFv: DIQMTQSPSSLSASVGDRVTITCRASQDVSNYLNWYQQKPGKAPKLLIYGASNRQTGVPSRFSGSGSGTDFTLTISSLQPEDFATYYCQQEDRFPTTFGQGTKVEIKGGGGSGGGGSGGGGSEVQLVQSGAEVRKPGSSVKVSCKASGDNFNNYGITWVRQAPGQGLEWMGRLITVLGLDNYAQKFQGRLTITADESTGTAYMELTGLEPEDTAVYYCARDIMSPEAIDAFDVWGQGTLVTVSS
B3: scFv S12D4 (phage display clone) (scFv)
scFv: QPVLTQDPAVSVALGQTVRITCQGDSLRKYYASWYQQKPGQAPRLVMYDENDRPSGIPDRFSGSSSGNTASLTITGAQADDEADYYCNSRDSSGHHVVFGGGTKVTVLGGGGSGGGGSGGGGSQMQLVQSGAEVRRPGSSVKVSCKTSGGTLNNYDINWVRQAPGQGLEWMGWMNPTSGQADFAQKFQGRVSMTRDTSINTAFMELNTLRSEDTAVYYCVRRGGKYWGQGTLVTVSS
B4: scFv S12D9 (phage display clone) (scFv)
scFv: QPVLTQDPVVSVALGQTVRITCQGDSLRSYYATWYQQKPGLAPVRVIFGKNSRPSGIPDRFSGSSSGNTASLTITGAQAEDEADYYCNSWDNSANHPVFGGGTKLTVLGGGGSGGGGSGGGGSEVQLVQSGAEVRKPGSSVKVSCKASGDNFNNYGITWVRQAPGQGLEWMGRLITVLGLDNYAQKFQGRLTITADESTGTAYMELTGLEPEDTAVYYCARDIMSPEAIDAFDVWGQGTLVTVSS
B5: scFv S4C7 (phage display clone) (scFv)
scFv: EIVLTQSASSLSASVGDRVTITCRTSQNIYRYLNWYQQKPGKAPKLLIFGASTLQTGVPSRFSGSGSGTDFTLTITGLQPEDLATYYCQHSFKLPFTFGQGTRLEIKGGGGSGGGGSGGGGSQMLVQSGAEVKRPGSSVTVSCETSGDTFSRYAISWLRQAPGQGLEWLGWISGNSGRADYAQNFQGRVTMTTDRSTSTAYLNLRSLRSDDTAVYYCARDAPMLFGVRGGGYYFGMDVWGQGTTVTVSS
B6: scFv S5D1 (phage display clone) (scFv)
scFv: QSVLTQPASVSGSPGQSVTISCTGTSSDVGGYNYVSWYQQHPGKPPKLMIYEVSKRPSGVPDRFSGSKSGNTASLTISGLQAEDEADYYCSSHTSSNTLIFGGGTKVTVLGGGGSGGGGSGGGGSEVQLVQSGAEVKKPGESLKISCKGSGYTFTNYWIGWVRQMPGKGLEWMGRIYPSDSYTNYSPSFQGQVTISADKSISTAYLQWSSLKASDTAMYYCARDLEPTHHYSWGQGTLVTVSS
B7: scFv S5F2 (phage display clone) (scFv)
scFv: LPVLTQPPSASGTPGQRVTISCSGSSSNIGSNAVDWYQQLPGTAPKLLIYTNNRRPSGVPDRFSGSKSGTSGSLAISGLQFEDEADYYCAAWDDSLSGVIFGGGTKVTVLGGGGSGGGGSGGGGSQVQLVQSGAEVKKPGSSVKVSCKASEDTFSSYVISWVRQAPGQGLEWMGAFIPLLGRVHYAQEFQGRLTITADESTGTAYMELKGLRSDDTAMYYCARDQGFAGDDAFDIWGQGTMVTVSS

These binders were tested against recombinantly expressed PAP (ACPP-His) (Homo sapiens (Human)) (assay: monoclonal identification of phage display scFv clones on solid phase coated antigen).
B1 was tested, and the binding was “binds”. In the case of B2, the binding is reported as “binds”. B3 was tested, and the binding was “binds”. In the case of B4, the binding is reported as “binds”. In the case of B5, the binding is reported as “binds”. B6 was tested, and the binding was “binds”. With B7 the binding was “binds”.

No constants are given. Whether binding was seen depends on the method and setting. Binding calls can cover weak binding; strength is not graded here.
